Test results from patent publication US8450271B2 (Northwestern University, priority 2009, dated 2013).

Experiment: general procedure: Fmoc solid-phase peptide synthesis; Rink amide resin (loading 0.6-0.75 mmole/g); pre-loaded glutamic acid Wang resin for filler PA; HBTU/DIEA
Conditions: whole synthesis, scale of the general procedure 1 mmole; for final HPLC purity: 220 nm

Substance | final HPLC purity | difficulty met
H3C(CH2)14CO-VVVAAAEEE | approximately 90% | Valine deletion
HSNGLPLGGGSEEEAAAVVV(K)-CO(CH2)10CH3 (HSNGLPLGGGSEEEAAAVVVK; dodecanoyl on C-terminal lysine epsilon amine) | approximately 90% | –
